For test [1], the target named is human superoxide dismutase-1 (hSOD1), variant not named for this experiment (human) (UniProt P00441). Description: co-IP; skeletal muscle protein extract (500 µg) of hSOD1 tg mice with 5 µg human-specific hSOD1 antibody (MBL, clone 1G2), captured on agarose-conjugated protein A; SDS-PAGE and Western blot for DNMT3A, DNMT1 or DNMT2; mitochondrial-enriched fractions for DNMT3A. On the technique in general: Immunoblotting shows a protein as a band on a membrane.

Sequences of proteins named here, by UniProt entry; tags and fusion partners are left off. A change or cut given only in a name is not applied to a line headed by its entry.
UniProt P00441: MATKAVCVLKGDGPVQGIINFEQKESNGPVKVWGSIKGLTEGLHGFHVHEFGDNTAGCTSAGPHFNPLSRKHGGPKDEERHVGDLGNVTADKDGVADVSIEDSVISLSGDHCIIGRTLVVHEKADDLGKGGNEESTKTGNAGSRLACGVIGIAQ
UniProt P13864: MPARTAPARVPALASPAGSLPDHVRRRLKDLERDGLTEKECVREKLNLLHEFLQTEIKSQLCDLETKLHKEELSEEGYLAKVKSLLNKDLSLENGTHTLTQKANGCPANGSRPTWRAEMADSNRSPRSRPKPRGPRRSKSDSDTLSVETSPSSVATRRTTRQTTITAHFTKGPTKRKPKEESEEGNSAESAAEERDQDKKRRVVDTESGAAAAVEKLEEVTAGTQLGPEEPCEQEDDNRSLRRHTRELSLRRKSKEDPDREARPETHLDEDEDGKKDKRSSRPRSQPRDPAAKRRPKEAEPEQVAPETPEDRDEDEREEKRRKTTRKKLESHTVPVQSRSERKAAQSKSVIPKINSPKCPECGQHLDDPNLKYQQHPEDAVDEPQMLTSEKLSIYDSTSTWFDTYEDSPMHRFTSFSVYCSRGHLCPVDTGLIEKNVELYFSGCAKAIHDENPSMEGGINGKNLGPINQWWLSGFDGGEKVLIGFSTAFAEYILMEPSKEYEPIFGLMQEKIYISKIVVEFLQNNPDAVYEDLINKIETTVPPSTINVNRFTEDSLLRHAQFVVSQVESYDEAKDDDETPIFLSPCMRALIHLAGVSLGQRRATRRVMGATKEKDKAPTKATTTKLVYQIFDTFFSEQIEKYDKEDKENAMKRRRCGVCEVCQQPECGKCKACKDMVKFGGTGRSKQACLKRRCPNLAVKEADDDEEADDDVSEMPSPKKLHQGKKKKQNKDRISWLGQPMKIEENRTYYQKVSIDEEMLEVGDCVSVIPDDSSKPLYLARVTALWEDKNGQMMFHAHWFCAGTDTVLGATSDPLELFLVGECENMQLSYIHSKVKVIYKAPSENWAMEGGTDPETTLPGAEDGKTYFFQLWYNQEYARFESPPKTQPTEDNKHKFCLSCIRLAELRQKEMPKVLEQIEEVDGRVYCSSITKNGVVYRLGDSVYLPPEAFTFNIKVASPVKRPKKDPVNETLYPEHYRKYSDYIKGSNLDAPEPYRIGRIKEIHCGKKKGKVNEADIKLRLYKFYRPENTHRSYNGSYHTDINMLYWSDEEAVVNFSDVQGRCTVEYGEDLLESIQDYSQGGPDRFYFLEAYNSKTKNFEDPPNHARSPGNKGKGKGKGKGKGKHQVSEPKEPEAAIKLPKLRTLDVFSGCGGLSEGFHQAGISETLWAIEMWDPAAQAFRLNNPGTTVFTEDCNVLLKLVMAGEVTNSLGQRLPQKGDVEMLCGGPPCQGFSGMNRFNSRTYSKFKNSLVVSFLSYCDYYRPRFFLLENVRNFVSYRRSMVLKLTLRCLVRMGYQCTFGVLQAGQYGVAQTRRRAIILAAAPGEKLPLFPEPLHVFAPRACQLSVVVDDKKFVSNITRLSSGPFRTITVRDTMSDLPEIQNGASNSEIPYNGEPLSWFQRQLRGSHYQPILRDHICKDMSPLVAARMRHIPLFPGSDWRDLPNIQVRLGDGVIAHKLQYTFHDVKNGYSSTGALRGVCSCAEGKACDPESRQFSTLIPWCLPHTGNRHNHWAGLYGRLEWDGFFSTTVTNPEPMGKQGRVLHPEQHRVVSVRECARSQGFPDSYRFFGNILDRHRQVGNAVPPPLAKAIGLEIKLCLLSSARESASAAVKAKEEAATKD

For test [2] the target is unchanged. The test is described as above. The source holds these as a separate data set.

Like-named read-outs stand apart in the source and are kept apart here. These are yes or no findings as the source states them, for the method shown. In cells and extracts the contact can be indirect. For some assays here: A result given as binding can be weak or reduced; the word gives no strength.

With “DNA methyltransferase-1 (DNMT1) (from UniProt P13864 1-1620) (enzyme)”, the binding entry in test [1] is on record as “no binding”.

B1: DNMT2, also known as tRNA aspartic acid methyltransferase-1 (TRDMT1) (enzyme, UniProt O55055 1-415)
chain: MEPLRVLELYSGIGGMHHALRESHIPAHVVAAIDVNTVANEVYKHNFPHTHLLSKTIEGISLEDFDKLSFNMILMSPPCQPFTRIGLQGDMTDPRTTSFLYILDILPRLQKLPKYILLENVKGFEVSSTRGLLIQTIEACGFQYQEFLLSPSSLGIPNSRLRYFLIAKLQSEPFPFQAPGQILMEFPKIVTVEPQKYAVVEESQPRVQRTGPRICAESSSTQSSGKDTILFKLETVEERDRKHQQDSDLSVQMLKDFLEDGDTDEYLLPPKLLLRYALLLDIVKPTSRRSMCFTKGYGSYIEGTGSVLQAAEDAQIENIYKSLPDLPPEEKIAKLSMLKLRYFTPKEIANLQGFPPEFGFPEKTTVKQRYRLLGNSLNVHVVAKLLTVLCEGFGNASESCHKMPLILDSNSKILS
B1: the binding result in test [2] was “binds weakly”.

The values above are taken from article PMC9657572.
